{
  "sequences": {"note": "Sequences of proteins named here, by UniProt entry; tags and fusion partners are left off.", "UniProt Q04207": "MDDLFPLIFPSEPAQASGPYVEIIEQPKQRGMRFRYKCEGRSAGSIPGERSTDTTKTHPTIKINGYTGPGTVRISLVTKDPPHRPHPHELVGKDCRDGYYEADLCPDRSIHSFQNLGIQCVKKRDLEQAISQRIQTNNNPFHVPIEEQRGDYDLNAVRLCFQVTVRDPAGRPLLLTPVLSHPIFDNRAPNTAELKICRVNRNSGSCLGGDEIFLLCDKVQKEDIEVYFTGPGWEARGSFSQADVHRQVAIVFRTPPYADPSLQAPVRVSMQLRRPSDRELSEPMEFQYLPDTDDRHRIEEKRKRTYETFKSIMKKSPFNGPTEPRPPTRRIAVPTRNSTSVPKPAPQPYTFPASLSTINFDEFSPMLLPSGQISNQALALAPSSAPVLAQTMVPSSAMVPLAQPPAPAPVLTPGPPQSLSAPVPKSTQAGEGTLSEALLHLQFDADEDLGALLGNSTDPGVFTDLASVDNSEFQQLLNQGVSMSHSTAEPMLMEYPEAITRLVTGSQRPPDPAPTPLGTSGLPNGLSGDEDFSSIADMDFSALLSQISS", "UniProt P33242": "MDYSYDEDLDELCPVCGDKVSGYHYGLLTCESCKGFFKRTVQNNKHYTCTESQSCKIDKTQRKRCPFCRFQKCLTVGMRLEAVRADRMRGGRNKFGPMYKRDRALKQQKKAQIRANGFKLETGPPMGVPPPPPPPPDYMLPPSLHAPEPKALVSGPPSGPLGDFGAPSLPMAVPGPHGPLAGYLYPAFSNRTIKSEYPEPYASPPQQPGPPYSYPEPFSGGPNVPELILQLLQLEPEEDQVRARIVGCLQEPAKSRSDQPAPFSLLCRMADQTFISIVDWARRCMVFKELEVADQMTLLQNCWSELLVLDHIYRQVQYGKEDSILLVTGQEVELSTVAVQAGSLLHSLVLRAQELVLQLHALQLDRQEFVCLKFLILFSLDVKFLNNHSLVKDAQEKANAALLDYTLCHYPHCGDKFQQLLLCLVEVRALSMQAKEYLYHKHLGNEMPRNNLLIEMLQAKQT"},
  "source": "paper PMC12649254",
  "molecular_target": "NF-κB p65 (mouse (endogenous in TM3)) (UniProt Q04207)",
  "experiment": "co-IP; TM3 cell lysates incubated with anti-p65 antibody (1:100) at 4 °C overnight, Protein A/G agarose beads; SF-1 detected by Western blot; normal IgG as negative control; cells with NF-κB activation (PS-NP exposure)",
  "note": "Results are given in words; binding and its absence hold for the method and conditions named. Binding seen in cells or lysates may run through a third protein. Some binding calls cover weakened binding; strength is not graded here.",
  "data": [
    {"substance": "steroidogenic factor-1 (SF-1) (from UniProt P33242 1-462)", "values": [
      {"measurement": "binding", "result": "binds"}
    ]}
  ]
}
